This note sets out measurements from patent US20010006794A1, “SCREENING FOR MODULATORS OF BIOMOLECULES” (priority 1995, published 2001).

Molecules are shown by their SMILES.

Assay [1] has as its system Salmonella typhimurium temperature sensitive mutant gyrA212 (strain 7533). Type of assay: cell-based. An excerpt:
A Salmonella typhimurium parent strain 7389 was used to form a collection of temperature sensitive mutants. […] Complementation of the mutant phenotype was done. In the case of the three mutants described in the data of this figure (gyrA202, gyrA208, gyrA212) the complemented mutants were identified to be in the A subunit of the bacterial DNA gyrase enzyme. Each mutant was altered in a different portion (see number of mutant) of the A subunit. NB. the A subunit is the protein to which flouroquinolones (e.g. ciprofloxacin, norfloxacin) interact to bring about their antimicrobial activity. […] The data are expressed as fold increases in susceptibility. A four-fold increase in susceptibility is the minimum change to be considered significant in this example.
Referring to FIG. 1, the experiments were essentially by the methods outlined by the National Committee for Clinical Laboratory Standards (NCCLS). Bacteria were grown in Mueller-Hinton (MH) broth with agitation at 30° C.
The antibiotic dilution ranges used were:
Novobiocin: Range 128-0 μg/ml. Coumermycin A1: Range 128-0 μg/ml. Ciprofloxacin: Range 0.5-0 μg/ml. Norfloxacin: Range 8-0 μg/ml. Mitomycin C: Range 8-0 μg/ml Phenylmercuric acetate: Range 32-0 μg/ml. 4-Nitroquinoline Oxide: Range 32-0 μM Rifampicin: Range 128-0 μg/ml. Gentamicin: Range 32-0 μg/ml. Streptomycin: Range 128-0 μg/ml. Cefotaxime: Range 8-0 μg/ml. Ampicillin: Range 32-0 μg/ml. […]

Assay [2] has as its system Salmonella typhimurium wild type. Type of assay: cell-based. As to the method:
Preliminary characterization of the utilization of large numbers of carbon sources can be carried out using manual or automated taxonomic screening devices, such as the Biolog MT, ES, GN or GP Microplate™. Alternatively, this can be performed using commercially available components. […] Briefly, strains were swabbed onto TSA plates and grown at a permissive temperature of 30° C. for 6 hours to provide an inoculum. The inoculum (MacFarland standard ˜1 in 0.89% sterile saline solution) was prepared as per Biolog “Instructions for Use” handbook, with the exception that leucine was added to correct for mutants housed in strains which were in a leucine-deficient background. Inoculum was added to Biolog GN or ES plates and incubated at the semipermissive temperature of 35° C. overnight (˜21 hr). Carbon source utilization is read colorimetrically in a microplate reader at 600 nm. Substrates that are not used similarly by wild-type and mutant are identified. […] Typically, these steps were performed using Biolog MT plates or by using a redox indicator (such as tetrazolium violet, 0.0001%) in a minimal medium with a sole carbon source (substrate being tested), supplemented with a small amount of tryptone (0.06%) or proteose peptone (0.2%). It was possible to do this in 96-well microtiter plate format, which will be adaptable to high throughput or multichannel screening.

Regarding `O=C(O)c1cn(C2CC2)c2cc(N3CCNCC3)c(F)cc2c1=O` [ciprofloxacin], the “fold increase in susceptibility” value in assay [1] amounted to 8 fold. The “utilization of formic acid as carbon source marker” value in assay [2] is listed as “affected”.
